The target of one assay is CHAF1A-HA (UniProt Q13111). Briefly: co-IP; HEK293T cells co-transfected with CHAF1A-HA and GFP-Flag (control), NEDD4-Flag or MIB1-Flag, treated with MG132; lysed at 48 h; western blot with HA, FLAG and GAPDH antibodies. For orientation: Immunoblotting shows a protein as a band on a membrane.
For assay [1], the target named is T1, O-GlcNAc transferase (OGT) (human (endogenous in Jurkat)) (UniProt O15294).
T1 sequence: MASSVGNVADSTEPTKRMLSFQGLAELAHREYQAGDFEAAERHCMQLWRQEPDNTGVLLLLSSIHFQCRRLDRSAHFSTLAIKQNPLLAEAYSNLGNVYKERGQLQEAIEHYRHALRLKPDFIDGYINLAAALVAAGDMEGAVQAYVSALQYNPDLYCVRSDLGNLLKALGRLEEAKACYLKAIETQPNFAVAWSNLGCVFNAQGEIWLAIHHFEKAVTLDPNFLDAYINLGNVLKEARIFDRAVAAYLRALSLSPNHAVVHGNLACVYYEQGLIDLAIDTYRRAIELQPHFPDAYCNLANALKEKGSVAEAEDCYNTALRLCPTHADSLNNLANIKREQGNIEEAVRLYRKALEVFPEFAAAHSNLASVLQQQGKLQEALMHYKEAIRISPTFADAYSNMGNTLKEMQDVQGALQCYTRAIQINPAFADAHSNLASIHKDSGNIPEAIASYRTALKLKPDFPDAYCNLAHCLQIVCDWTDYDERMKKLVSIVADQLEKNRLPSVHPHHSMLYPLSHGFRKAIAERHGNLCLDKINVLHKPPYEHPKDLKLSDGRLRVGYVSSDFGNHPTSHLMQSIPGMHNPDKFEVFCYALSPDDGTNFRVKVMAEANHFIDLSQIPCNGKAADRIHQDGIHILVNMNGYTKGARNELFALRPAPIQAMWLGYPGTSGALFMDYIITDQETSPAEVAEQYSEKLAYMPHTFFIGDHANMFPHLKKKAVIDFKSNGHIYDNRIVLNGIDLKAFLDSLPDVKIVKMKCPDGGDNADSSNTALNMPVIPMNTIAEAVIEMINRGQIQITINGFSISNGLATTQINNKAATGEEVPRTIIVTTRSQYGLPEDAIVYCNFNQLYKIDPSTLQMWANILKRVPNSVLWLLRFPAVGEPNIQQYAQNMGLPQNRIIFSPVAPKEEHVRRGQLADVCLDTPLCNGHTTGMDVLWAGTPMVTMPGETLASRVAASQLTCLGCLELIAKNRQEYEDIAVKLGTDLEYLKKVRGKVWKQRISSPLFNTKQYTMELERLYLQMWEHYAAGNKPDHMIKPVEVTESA
Briefly: co-IP; Jurkat cell lysates immunoprecipitated with anti-CHAF1A antibody or, reciprocally, anti-OGT antibody, IgG as control; western blot; all proteins endogenous.

Amino acid sequences for entries named in this document (tags omitted).
UniProt Q13111: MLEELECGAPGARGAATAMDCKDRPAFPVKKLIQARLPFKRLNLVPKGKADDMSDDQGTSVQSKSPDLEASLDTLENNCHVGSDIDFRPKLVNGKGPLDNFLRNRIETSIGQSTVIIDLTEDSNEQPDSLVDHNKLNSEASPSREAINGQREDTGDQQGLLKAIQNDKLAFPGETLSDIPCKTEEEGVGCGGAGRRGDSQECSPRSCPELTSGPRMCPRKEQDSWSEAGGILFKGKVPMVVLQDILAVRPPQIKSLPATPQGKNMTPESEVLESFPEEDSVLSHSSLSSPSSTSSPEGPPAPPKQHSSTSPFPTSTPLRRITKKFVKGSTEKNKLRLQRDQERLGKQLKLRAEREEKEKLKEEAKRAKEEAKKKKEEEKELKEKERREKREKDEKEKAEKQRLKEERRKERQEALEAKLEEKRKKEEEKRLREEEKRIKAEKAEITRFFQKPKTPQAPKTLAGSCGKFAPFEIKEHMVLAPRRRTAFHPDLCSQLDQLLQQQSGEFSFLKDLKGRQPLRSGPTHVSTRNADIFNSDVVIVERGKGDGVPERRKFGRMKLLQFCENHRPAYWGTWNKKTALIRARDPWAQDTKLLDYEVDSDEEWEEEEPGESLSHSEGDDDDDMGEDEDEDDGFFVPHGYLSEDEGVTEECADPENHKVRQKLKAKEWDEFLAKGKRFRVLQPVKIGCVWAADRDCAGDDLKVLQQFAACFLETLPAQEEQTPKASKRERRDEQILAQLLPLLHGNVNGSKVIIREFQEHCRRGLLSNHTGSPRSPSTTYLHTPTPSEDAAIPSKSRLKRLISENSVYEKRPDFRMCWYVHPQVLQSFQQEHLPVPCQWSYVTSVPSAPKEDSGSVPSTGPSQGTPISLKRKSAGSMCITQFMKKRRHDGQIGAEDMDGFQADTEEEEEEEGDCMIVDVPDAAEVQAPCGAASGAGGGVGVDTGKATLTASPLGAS
UniProt P46934: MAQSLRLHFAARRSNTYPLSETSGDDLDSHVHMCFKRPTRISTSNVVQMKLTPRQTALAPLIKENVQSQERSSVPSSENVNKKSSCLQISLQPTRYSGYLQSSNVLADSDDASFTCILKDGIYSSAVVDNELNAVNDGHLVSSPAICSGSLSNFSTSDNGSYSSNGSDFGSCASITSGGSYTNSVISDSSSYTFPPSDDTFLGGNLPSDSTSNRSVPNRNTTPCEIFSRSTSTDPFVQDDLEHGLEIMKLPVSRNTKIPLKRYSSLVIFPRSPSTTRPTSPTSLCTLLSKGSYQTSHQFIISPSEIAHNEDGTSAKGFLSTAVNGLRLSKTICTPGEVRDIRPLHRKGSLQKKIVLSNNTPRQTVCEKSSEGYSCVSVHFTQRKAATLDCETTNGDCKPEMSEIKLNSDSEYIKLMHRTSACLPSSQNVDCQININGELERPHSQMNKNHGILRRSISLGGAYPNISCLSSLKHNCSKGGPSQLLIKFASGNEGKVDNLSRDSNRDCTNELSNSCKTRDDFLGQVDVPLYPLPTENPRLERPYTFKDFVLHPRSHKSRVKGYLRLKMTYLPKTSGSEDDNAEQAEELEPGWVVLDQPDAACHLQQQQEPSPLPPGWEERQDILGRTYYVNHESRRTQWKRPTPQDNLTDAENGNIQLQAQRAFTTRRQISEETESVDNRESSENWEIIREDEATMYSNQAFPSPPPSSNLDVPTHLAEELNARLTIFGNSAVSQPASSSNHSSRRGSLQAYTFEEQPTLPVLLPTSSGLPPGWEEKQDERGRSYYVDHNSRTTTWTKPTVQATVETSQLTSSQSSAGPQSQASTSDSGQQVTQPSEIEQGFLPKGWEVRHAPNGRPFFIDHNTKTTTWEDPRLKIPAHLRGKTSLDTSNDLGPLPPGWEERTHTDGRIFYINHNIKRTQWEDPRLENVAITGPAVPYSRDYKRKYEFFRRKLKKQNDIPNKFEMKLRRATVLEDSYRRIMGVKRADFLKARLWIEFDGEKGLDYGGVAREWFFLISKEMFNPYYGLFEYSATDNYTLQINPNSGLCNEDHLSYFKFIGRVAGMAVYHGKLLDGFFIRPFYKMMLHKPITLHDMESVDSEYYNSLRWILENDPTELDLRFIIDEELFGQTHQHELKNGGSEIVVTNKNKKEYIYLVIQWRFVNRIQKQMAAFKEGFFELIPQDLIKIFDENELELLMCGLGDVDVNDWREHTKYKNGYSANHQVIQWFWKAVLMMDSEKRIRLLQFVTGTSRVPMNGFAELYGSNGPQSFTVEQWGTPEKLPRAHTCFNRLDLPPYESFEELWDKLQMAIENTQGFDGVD

Assay [2] has as its target Chromatin assembly factor 1 subunit A (CHAF1A) (human (endogenous in Jurkat)) (UniProt Q13111). The assay is described as above.

The values below come from publication PMC12724330.

No constants are given. Whether binding was seen depends on the method and setting. Binding seen in cells or lysates may run through a third protein. Some entries that bind do so weakly or less than the wild type.

With “NEDD4-Flag (from UniProt P46934 1-1319) (enzyme)”, the binding result with CHAF1A-HA is reported as “no binding”. As for “Chromatin assembly factor 1 subunit A (CHAF1A) (from UniProt Q13111 1-956)”, the binding entry in assay [1] is on record as “binds”.

B1: O-GlcNAc transferase (OGT) (enzyme, UniProt O15294 1-1046)
chain: MASSVGNVADSTEPTKRMLSFQGLAELAHREYQAGDFEAAERHCMQLWRQEPDNTGVLLLLSSIHFQCRRLDRSAHFSTLAIKQNPLLAEAYSNLGNVYKERGQLQEAIEHYRHALRLKPDFIDGYINLAAALVAAGDMEGAVQAYVSALQYNPDLYCVRSDLGNLLKALGRLEEAKACYLKAIETQPNFAVAWSNLGCVFNAQGEIWLAIHHFEKAVTLDPNFLDAYINLGNVLKEARIFDRAVAAYLRALSLSPNHAVVHGNLACVYYEQGLIDLAIDTYRRAIELQPHFPDAYCNLANALKEKGSVAEAEDCYNTALRLCPTHADSLNNLANIKREQGNIEEAVRLYRKALEVFPEFAAAHSNLASVLQQQGKLQEALMHYKEAIRISPTFADAYSNMGNTLKEMQDVQGALQCYTRAIQINPAFADAHSNLASIHKDSGNIPEAIASYRTALKLKPDFPDAYCNLAHCLQIVCDWTDYDERMKKLVSIVADQLEKNRLPSVHPHHSMLYPLSHGFRKAIAERHGNLCLDKINVLHKPPYEHPKDLKLSDGRLRVGYVSSDFGNHPTSHLMQSIPGMHNPDKFEVFCYALSPDDGTNFRVKVMAEANHFIDLSQIPCNGKAADRIHQDGIHILVNMNGYTKGARNELFALRPAPIQAMWLGYPGTSGALFMDYIITDQETSPAEVAEQYSEKLAYMPHTFFIGDHANMFPHLKKKAVIDFKSNGHIYDNRIVLNGIDLKAFLDSLPDVKIVKMKCPDGGDNADSSNTALNMPVIPMNTIAEAVIEMINRGQIQITINGFSISNGLATTQINNKAATGEEVPRTIIVTTRSQYGLPEDAIVYCNFNQLYKIDPSTLQMWANILKRVPNSVLWLLRFPAVGEPNIQQYAQNMGLPQNRIIFSPVAPKEEHVRRGQLADVCLDTPLCNGHTTGMDVLWAGTPMVTMPGETLASRVAASQLTCLGCLELIAKNRQEYEDIAVKLGTDLEYLKKVRGKVWKQRISSPLFNTKQYTMELERLYLQMWEHYAAGNKPDHMIKPVEVTESA
On to B1, for which the binding entry in assay [2] was “binds”.

B2: O-GlcNAcase (OGA) (enzyme, UniProt O60502 1-916)
chain: MVQKESQATLEERESELSSNPAASAGASLEPPAAPAPGEDNPAGAGGAAVAGAAGGARRFLCGVVEGFYGRPWVMEQRKELFRRLQKWELNTYLYAPKDDYKHRMFWREMYSVEEAEQLMTLISAAREYEIEFIYAISPGLDITFSNPKEVSTLKRKLDQVSQFGCRSFALLFDDIDHNMCAADKEVFSSFAHAQVSITNEIYQYLGEPETFLFCPTEYCGTFCYPNVSQSPYLRTVGEKLLPGIEVLWTGPKVVSKEIPVESIEEVSKIIKRAPVIWDNIHANDYDQKRLFLGPYKGRSTELIPRLKGVLTNPNCEFEANYVAIHTLATWYKSNMNGVRKDVVMTDSEDSTVSIQIKLENEGSDEDIETDVLYSPQMALKLALTEWLQEFGVPHQYSSRQVAHSGAKASVVDGTPLVAAPSLNATTVVTTVYQEPIMSQGAALSGEPTTLTKEEEKKQPDEEPMDMVVEKQEETDHKNDNQILSEIVEAKMAEELKPMDTDKESIAESKSPEMSMQEDCISDIAPMQTDEQTNKEQFVPGPNEKPLYTAEPVTLEDLQLLADLFYLPYEHGPKGAQMLREFQWLRANSSVVSVNCKGKDSEKIEEWRSRAAKFEEMCGLVMGMFTRLSNCANRTILYDMYSYVWDIKSIMSMVKSFVQWLGCRSHSSAQFLIGDQEPWAFRGGLAGEFQRLLPIDGANDLFFQPPPLTPTSKVYTIRPYFPKDEASVYKICREMYDDGVGLPFQSQPDLIGDKLVGGLLSLSLDYCFVLEDEDGICGYALGTVDVTPFIKKCKISWIPFMQEKYTKPNGDKELSEAEKIMLSFHEEQEVLPETFLANFPSLIKMDIHKKVTDPSVAKSMMACLLSSLKANGSRGAFCEVRPDDKRILEFYSKLGCFEIAKMEGFPKDVVILGRSL
For the molecule B2, in assay [2], the binding entry was “binds”.
